The values that follow come from patent publication US20170157212A1, “CDK MODULATORS AND METHODS FOR THE TREATMENT OF CANCER” (Salk Institute for Biological Studies, priority 2015, published 2017).

Protein sequences, listed by entry. Tags and fused reporters are not part of them.
UniProt Q9NYV4: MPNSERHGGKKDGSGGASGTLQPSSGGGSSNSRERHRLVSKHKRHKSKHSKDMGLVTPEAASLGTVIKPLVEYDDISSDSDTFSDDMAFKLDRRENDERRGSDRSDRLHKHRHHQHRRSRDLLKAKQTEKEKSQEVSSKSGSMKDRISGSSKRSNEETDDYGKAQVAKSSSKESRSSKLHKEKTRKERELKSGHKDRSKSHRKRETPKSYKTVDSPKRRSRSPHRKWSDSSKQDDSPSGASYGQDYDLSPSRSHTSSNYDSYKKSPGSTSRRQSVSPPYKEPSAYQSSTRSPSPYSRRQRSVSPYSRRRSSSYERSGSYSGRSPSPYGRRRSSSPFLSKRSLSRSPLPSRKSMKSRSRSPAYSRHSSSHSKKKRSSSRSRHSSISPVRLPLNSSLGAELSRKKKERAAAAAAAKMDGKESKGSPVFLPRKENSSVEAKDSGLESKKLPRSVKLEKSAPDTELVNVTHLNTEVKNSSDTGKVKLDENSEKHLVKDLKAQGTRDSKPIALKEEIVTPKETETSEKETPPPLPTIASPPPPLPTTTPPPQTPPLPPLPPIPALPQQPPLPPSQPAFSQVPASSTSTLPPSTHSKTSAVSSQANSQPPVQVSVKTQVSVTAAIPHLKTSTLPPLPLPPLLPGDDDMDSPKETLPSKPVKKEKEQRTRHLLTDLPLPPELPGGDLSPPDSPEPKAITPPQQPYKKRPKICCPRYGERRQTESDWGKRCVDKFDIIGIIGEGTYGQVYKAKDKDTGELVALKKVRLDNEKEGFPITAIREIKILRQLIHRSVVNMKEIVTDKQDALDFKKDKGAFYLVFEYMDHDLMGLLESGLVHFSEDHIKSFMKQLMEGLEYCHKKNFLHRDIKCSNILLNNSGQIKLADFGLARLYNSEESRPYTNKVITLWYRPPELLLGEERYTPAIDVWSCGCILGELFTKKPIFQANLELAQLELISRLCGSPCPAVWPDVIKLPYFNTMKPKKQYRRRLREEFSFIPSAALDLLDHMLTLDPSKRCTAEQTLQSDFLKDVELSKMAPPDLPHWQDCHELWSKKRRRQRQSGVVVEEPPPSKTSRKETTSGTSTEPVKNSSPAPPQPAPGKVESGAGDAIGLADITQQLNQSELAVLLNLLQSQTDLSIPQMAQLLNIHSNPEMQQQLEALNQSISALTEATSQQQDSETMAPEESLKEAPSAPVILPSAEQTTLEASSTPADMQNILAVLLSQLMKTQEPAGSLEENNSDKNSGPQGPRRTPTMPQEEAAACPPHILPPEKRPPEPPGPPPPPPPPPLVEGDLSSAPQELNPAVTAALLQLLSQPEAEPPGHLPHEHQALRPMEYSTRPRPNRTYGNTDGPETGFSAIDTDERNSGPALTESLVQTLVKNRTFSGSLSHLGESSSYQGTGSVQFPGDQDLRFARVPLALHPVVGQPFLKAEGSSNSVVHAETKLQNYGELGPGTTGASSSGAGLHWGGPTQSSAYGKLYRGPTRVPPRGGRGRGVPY
UniProt O75909: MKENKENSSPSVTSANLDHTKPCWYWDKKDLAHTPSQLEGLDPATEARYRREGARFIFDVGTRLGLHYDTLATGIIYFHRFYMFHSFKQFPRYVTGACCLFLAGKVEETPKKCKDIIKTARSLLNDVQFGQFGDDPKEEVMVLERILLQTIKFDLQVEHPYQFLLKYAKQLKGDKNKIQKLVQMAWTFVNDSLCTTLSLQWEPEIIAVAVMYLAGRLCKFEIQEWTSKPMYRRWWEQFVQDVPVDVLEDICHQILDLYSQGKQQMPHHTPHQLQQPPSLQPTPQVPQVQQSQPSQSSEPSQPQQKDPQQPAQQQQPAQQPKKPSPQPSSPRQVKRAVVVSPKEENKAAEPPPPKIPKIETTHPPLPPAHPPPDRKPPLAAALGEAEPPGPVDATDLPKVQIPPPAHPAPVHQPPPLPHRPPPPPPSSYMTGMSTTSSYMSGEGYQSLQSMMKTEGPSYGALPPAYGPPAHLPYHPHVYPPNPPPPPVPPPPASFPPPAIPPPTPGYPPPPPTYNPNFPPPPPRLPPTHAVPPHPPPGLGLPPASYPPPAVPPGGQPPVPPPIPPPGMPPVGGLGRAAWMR

These are yes or no findings as the source states them, for the method shown. Binding seen in cells or lysates may run through a third protein. Some binding calls cover weakened binding; strength is not graded here.

The target in this assay is CDK12, native (endogenous) human (human) (UniProt Q9NYV4). The experiment in a line: co-immunoprecipitation from U2OS cells with or without tBHQ (FIG. 7E).

CCNK (from UniProt O75909 1-580): the binding result is “binds”.
